{"sequences": {"note": "Sequences of proteins named here, by UniProt entry; tags and fusion partners are left off. A change or cut given only in a name is not applied to a line headed by its entry.", "UniProt Q99523": "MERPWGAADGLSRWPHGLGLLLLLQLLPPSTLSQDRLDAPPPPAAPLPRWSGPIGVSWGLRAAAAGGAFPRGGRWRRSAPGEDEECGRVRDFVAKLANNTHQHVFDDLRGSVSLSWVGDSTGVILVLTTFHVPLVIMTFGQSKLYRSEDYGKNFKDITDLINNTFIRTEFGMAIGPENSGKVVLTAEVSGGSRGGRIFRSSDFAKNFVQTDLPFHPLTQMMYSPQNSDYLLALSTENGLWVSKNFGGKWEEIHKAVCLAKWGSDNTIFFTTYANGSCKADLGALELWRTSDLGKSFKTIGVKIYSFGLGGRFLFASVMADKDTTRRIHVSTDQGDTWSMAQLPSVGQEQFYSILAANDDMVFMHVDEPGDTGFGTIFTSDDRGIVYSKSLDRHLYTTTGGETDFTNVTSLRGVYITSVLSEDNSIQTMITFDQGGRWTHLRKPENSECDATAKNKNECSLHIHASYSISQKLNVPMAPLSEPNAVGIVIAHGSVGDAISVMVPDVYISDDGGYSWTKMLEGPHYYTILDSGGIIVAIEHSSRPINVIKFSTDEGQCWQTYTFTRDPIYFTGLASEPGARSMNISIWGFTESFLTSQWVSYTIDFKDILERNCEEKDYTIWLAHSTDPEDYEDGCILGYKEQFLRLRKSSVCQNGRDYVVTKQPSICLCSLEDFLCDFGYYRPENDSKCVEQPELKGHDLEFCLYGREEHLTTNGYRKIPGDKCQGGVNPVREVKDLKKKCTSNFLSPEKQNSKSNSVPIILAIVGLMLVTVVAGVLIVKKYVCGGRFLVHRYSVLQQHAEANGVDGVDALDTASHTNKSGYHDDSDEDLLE"}, "source": "patent US20110166032A1", "about": "“Design and Use of Sortilin Specific Molecular Imaging Ligands” (H. LUNDBECK A/S, priority 2008, published 2011)", "target": "sSortilin S316E mutant (human) (UniProt Q99523)", "test": "SPR, immobilised S316E sSortilin", "note": "No constants are given. Whether binding was seen depends on the method and setting. Some results given as binding are weak or reduced against the parent protein; the word gives no strength."}
{"binder": "Mature BDNF (ligand) HSDPARRGELSVCDSISEWVTAADKKTAVDMSGGTVTVLEKVPVSKGQLKQYFYETKCNPMGYTKEGCRGIDKRHWNSQCRTTQSYVRALTMDSKKRIGWRFIRIDTSCVCTLTIKRGR", "values": [{"measurement": "binding", "result": "binds"}]}
